Data taken from doi:10.1101/2023.04.19.537449.
These are yes or no findings as the source states them, for the method shown. In cells and extracts the contact can be indirect. A result given as binding can be weak or reduced; the word gives no strength.

Sequences of proteins named here, by UniProt entry; tags and fusion partners are left off. A change or cut given only in a name is not applied to a line headed by its entry.
UniProt Q9Y2J4: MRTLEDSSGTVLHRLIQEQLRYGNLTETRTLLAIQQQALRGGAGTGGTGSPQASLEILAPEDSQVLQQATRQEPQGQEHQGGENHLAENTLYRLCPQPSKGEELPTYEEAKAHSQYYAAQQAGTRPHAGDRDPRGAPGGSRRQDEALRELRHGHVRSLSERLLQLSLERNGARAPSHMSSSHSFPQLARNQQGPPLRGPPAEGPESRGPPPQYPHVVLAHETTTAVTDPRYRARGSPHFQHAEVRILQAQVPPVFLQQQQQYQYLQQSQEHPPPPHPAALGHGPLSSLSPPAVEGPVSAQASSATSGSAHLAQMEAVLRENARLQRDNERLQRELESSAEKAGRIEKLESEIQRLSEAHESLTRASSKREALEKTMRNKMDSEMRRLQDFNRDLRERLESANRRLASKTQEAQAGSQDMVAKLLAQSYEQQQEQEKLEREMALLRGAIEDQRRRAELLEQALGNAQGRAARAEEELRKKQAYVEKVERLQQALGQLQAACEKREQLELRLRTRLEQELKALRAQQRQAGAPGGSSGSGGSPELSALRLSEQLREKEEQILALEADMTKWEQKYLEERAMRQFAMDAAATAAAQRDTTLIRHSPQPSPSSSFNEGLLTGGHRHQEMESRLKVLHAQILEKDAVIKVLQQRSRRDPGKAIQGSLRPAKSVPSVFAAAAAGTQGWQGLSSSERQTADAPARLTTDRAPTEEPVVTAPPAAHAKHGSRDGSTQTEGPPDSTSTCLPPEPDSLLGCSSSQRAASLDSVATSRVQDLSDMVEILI
UniProt P46937: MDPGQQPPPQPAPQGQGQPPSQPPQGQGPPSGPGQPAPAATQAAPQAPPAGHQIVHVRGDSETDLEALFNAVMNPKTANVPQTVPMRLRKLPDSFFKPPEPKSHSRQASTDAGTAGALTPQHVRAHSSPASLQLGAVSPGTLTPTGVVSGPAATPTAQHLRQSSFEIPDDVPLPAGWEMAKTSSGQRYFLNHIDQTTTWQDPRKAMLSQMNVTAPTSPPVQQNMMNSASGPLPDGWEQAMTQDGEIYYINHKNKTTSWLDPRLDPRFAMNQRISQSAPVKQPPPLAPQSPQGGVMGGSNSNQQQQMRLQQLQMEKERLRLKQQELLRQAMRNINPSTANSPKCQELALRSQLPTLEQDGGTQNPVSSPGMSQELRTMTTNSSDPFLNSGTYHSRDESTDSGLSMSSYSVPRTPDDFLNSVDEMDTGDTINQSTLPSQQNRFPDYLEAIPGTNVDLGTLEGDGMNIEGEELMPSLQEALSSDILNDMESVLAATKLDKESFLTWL

Columns and labels:
Test in all cases: co-IP; HEK293T cells at high cell density co-expressing FLAG-AMOTL2 forms and HA-YAP; 1 mg lysate (RIPA or nondenaturing lysis buffer: 20 mM Tris, 137 mM NaCl, 0.5% NP-40) with anti-FLAG M2 magnetic beads overnight at 4°C; eluted with FLAG peptide; anti-HA blot
[1] = target: FLAG-tagged double exon-skipped AMOTL2 (Δ5Δ9) (UniProt Q9Y2J4)
[2] = target: FLAG-tagged exon 5-skipped AMOTL2 (Δ5) (UniProt Q9Y2J4)
[3] = target: FLAG-tagged exon 9-skipped AMOTL2 (Δ9) (UniProt Q9Y2J4)

Measured: binding

HA-tagged YAP (Yes-associated protein 1) (from UniProt P46937 1-504)
binds: [1] | [2] | [3]
